Results are given in words; binding and its absence hold for the method and conditions named. Binding seen in cells or lysates may run through a third protein. Binding can be weak; no strength is given.
Target: FLAG-tagged RUNX1 (UniProt Q01196)
Assay: co-IP; HEK293T cells co-transfected with a FLAG-tagged and a non-tagged protein; lysis after 3 days in 150 mM NaCl, 50 mM Tris-HCl pH 7,5, 1% Nonidet P-40, 0,5% sodium deoxycholate; α-FLAG M2 affinity gel 2 h at 4°C, 6 washes; immunoblot with α-FOXP3 eBio7979

By UniProt entry, the sequences of proteins in these tests, tags left out. Where a name states a change or a piece, a line headed by the entry shows the natural chain unless it says otherwise.
UniProt Q01196: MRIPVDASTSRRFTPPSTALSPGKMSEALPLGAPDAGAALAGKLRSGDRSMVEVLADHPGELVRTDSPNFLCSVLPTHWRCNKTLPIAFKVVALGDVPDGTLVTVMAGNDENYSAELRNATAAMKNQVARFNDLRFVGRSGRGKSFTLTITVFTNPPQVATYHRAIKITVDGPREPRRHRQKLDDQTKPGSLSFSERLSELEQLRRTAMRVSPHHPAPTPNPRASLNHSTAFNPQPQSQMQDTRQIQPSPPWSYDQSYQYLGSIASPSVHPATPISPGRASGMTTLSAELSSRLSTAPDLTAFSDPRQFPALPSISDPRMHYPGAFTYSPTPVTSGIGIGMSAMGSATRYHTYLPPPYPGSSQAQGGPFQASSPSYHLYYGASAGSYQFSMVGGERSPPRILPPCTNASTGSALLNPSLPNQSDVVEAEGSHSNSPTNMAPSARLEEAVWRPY
UniProt Q9BZS1: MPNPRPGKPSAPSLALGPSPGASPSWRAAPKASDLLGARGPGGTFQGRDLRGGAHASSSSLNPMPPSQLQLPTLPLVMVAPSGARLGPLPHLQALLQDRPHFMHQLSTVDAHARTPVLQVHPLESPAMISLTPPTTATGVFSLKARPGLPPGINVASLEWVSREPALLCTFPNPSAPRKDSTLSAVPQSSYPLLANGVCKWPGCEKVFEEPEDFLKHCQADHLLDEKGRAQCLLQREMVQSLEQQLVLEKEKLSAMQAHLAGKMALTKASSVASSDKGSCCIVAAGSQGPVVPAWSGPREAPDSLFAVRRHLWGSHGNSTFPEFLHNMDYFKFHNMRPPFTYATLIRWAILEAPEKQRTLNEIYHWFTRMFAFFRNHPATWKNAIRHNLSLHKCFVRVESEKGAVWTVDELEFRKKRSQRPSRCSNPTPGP

binding: binds
Substance: FOXP3Δ2Δ7 (from UniProt Q9BZS1)
